Data as given in patent publication US11771685B2, “Compounds for the treatment of neurological or mitochondrial diseases” (MUSC FOUNDATION FOR RESEARCH DEVELOPMENT, priority 2018, dated 2023).
Values joined by “and” are separate entries in the source; they are usually repeats but may differ in a detail not shown here. Equal values may be shown once. For some of these results: The name of at least one read-out is uncertain. Some of these results come from one statement about several compounds together.

How the values were obtained:
[1] = test system: PTZ-induced seizure activity in zebrafish larvae; experiment: Zebrafish PTZ-induced seizure model; assay type: in vivo; conditions: 7 dpf larvae, 1 hr pre-treatment, 10 mM PTZ
Description: The zebrafish PTZ-induced seizure model was used to determine the most promising compounds' in vivo efficacy. Zebrafish larvae (7 dpf) were treated with the compound for 1 hr prior to inducing seizures with PTZ. As established by previous larval zebrafish anti-seizure studies (Rahn et al., 2014; Hansen et al., 2004; Baraban et al., 2005), total distance traveled by each fish after seizure induction was measured and used as a proxy for seizure activity. Following collection of locomotor data, observation of a startle response and visual inspection for abnormal morphology confirmed that alterations in swim activity were not caused by compound toxicity.
We induced seizures in 7 dpf zebrafish larvae by the addition of […] PTZ as originally developed by Baraban et al., 2005. In a 48-well plate, one 7-dpf zebrafish was added per well. Larvae were dosed with each compound at a sub-lethal dose 1 hr prior to PTZ treatment. Two control rows were included with each experiment—tank water only control and PTZ only. Seizures were induced by adding PTZ to wells to yield a final concentration of 10 mM. After 5 min, the plate was transferred to the Daniovision instrument (Noldus Information Technology) and the chamber light was turned on. After 2 min, MediaRecorder (Noldus) was used to record video for 15 min. […]

[2] = In vivo pharmacokinetics in CD-1 mice; parameters: species or system mouse; conditions: oral 20 mg/kg
Description: PK studies on 3 and 25 were carried out in CD-1 mice. Three males were dosed via oral gavage needle for oral administration at 20 mg/kg (10 mL/kg) or via intravenous administration at 5 mg/kg (10 mL/kg). Blood samples were taken at time intervals between 5 min and 24 hr from each animal.
The PK studies of 1 were performed by WuXi AppTec and PK studies of 3 and 25 were performed by Touchstone Biosciences (Peng et al., 2006b; Peng et al., 2001; Peng et al., 2006a; Peng et al., 2009). Male CD-1 mice were fed a standard laboratory rodent diet and housed in individual cages on a 12 hr light and 12 hr dark cycle with room temperature maintained at 22±3° C. and relative humidity at 50±20%. Animals were typically fasted overnight before dosing, with food returned after the 6 hr blood samples were obtained. Water was provided ad libitum throughout the study. The dosing solution of each test compound was prepared in a desired oral or intravenous formulation. Three to four animals were dosed via gavage needle for oral administration at 10-20 mg/kg (10-20 mL/kg) or via tail vein injection for IV administration at 2-5 mg/kg (2-5 mL/kg). […] Fluid replacement (1.5 mL of 0.9% NaCl injection, USP) was administered subcutaneously once after the 2 hr blood sampling. Blood samples were collected in BD Microtainer tubes coated with anticoagulant, placed on ice, and within 30 min, centrifuged at 15,000 g for 5 min to obtain plasma samples. All plasma samples were stored at −70° C. until analysis.
Plasma samples were prepared as follows. Three volumes of acetonitrile containing internal standard was added to one volume of plasma to precipitate proteins. Samples were centrifuged (3000 g for 10 min) and supernatant removed for analysis by LC-MS/MS. […]
Plasma concentrations were measured as described above to determine a concentration vs. time profile. The area under the plasma concentration vs time curve (AUC) was calculated using the linear trapezoidal method. […]

[3] = test system: HT-22; experiment: In vitro HT-22 cytotoxicity

Compound	concentration at which some HT-22 cytotoxicity was observed [3] [µM]	other results
COc1cccc(C#CCNC2=CC(=O)c3ccccc3C2=O)c1 [Compound 10, 2-((3-(3-Methoxyphenyl)prop-2-yn-1-yl)amino)naphthalene-1,4-dione]	–	Anti-seizure activity: lowest tested dose with significant difference vs PTZ-only group [1]: > 10 µM and >20 µM
CC#CCNC1=CC(=O)c2ccccc2C1=O [Compound 2, 2-(But-2-yn-1-ylamino)naphthalene-1,4-dione]	–	Anti-seizure activity: lowest tested dose with significant difference vs PTZ-only group [1]: 40 µM
CC(C)CCOC1=CC(=O)c2ccccc2C1=O [Compound 25, 2-(Isopentyloxy)naphthalene-1,4-dione]	> 10	time to reach Cmax ([2]; 20% DMA-40% PEG300-40% H2O): ≤ 30 min; time to reach Cmax ([2]; suspension 1% Tween 80:1% carboxymethylcellulose in water): ≤ 60 min
CCC#CCOC1=CC(=O)c2ccccc2C1=O [Compound 29, 2-(Pent-2-yn-1-yloxy)naphthalene-1,4-dione]	> 10	–
CCCCC#CCOC1=CC(=O)c2ccccc2C1=O [Compound 31, 2-(Hept-2-yn-1-yloxy)naphthalene-1,4-dione]	> 10	–
CCC#CCNC1=CC(=O)c2ccccc2C1=O [Compound 3, 2-(Pent-2-yn-1-ylamino)naphthalene-1,4-dione]	–	time to reach Cmax ([2]; 20% DMA-40% PEG300-40% H2O): ≤ 15 min
CCCC#CCOC1=CC(=O)c2ccccc2C1=O [Compound 30, 2-(Hex-2-yn-1-yloxy)naphthalene-1,4-dione]	> 10	–
O=C1C=C(OCc2ccccc2)C(=O)c2ccccc21 [Compound 27, 2-(Benzyloxy)naphthalene-1,4-dione]	> 10	–
